According to the supplement of paper PMC7666118:
The list shows a part of the results.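 The calls were made as follows: active = dose-dependent thermal stabilisation significant by F-test of dose-response against flat model at 10% FDR; inactive = not significant.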

Chains of the proteins cited; added tags and fusions are not shown. Lines headed by an entry give the natural chain unless they say otherwise; changes in a name come on top.
UniProt Q8TAA3: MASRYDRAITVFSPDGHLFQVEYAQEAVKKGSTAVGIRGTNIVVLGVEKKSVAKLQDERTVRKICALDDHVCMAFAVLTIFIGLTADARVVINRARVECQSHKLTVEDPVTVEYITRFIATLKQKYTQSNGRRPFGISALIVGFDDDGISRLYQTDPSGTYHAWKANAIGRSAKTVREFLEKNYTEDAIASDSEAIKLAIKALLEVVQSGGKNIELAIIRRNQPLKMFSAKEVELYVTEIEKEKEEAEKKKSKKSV
UniProt P98175: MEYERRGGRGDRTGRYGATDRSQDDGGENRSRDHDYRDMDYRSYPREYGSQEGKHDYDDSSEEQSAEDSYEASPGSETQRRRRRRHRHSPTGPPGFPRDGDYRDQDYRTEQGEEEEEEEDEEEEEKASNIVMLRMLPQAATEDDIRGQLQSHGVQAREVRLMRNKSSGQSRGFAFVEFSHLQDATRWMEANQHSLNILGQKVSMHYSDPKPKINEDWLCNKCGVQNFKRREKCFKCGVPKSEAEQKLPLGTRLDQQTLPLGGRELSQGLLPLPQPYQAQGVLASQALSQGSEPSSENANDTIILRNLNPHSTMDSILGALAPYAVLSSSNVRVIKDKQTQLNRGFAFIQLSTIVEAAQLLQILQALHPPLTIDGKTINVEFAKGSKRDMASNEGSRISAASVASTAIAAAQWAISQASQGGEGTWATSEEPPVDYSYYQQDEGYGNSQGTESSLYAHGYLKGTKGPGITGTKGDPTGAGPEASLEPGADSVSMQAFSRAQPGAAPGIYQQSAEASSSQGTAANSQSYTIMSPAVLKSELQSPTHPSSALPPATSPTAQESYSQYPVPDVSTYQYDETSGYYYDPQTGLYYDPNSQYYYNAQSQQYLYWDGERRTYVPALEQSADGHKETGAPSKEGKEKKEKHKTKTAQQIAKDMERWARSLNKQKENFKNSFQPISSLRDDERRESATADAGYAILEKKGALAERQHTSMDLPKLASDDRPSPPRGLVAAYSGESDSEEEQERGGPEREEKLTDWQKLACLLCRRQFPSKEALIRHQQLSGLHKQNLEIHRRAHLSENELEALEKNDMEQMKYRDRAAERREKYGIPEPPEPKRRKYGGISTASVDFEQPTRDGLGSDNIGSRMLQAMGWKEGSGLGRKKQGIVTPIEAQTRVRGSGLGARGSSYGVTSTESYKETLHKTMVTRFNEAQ
UniProt Q16401: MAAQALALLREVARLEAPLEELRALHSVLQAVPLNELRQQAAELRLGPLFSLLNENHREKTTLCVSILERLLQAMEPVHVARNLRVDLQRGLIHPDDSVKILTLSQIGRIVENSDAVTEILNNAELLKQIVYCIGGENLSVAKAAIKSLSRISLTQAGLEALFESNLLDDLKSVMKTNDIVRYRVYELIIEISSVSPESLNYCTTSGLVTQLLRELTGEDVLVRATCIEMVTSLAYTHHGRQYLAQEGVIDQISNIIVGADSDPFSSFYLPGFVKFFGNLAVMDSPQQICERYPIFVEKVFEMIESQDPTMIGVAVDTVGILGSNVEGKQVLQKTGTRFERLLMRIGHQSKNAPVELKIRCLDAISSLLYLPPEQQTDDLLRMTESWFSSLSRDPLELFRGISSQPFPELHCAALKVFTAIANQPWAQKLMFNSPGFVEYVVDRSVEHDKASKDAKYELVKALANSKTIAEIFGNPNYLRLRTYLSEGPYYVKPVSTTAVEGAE
UniProt P20962: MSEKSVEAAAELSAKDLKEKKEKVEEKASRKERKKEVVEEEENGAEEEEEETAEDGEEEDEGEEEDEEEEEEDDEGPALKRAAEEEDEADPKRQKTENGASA
UniProt Q9Y4G8: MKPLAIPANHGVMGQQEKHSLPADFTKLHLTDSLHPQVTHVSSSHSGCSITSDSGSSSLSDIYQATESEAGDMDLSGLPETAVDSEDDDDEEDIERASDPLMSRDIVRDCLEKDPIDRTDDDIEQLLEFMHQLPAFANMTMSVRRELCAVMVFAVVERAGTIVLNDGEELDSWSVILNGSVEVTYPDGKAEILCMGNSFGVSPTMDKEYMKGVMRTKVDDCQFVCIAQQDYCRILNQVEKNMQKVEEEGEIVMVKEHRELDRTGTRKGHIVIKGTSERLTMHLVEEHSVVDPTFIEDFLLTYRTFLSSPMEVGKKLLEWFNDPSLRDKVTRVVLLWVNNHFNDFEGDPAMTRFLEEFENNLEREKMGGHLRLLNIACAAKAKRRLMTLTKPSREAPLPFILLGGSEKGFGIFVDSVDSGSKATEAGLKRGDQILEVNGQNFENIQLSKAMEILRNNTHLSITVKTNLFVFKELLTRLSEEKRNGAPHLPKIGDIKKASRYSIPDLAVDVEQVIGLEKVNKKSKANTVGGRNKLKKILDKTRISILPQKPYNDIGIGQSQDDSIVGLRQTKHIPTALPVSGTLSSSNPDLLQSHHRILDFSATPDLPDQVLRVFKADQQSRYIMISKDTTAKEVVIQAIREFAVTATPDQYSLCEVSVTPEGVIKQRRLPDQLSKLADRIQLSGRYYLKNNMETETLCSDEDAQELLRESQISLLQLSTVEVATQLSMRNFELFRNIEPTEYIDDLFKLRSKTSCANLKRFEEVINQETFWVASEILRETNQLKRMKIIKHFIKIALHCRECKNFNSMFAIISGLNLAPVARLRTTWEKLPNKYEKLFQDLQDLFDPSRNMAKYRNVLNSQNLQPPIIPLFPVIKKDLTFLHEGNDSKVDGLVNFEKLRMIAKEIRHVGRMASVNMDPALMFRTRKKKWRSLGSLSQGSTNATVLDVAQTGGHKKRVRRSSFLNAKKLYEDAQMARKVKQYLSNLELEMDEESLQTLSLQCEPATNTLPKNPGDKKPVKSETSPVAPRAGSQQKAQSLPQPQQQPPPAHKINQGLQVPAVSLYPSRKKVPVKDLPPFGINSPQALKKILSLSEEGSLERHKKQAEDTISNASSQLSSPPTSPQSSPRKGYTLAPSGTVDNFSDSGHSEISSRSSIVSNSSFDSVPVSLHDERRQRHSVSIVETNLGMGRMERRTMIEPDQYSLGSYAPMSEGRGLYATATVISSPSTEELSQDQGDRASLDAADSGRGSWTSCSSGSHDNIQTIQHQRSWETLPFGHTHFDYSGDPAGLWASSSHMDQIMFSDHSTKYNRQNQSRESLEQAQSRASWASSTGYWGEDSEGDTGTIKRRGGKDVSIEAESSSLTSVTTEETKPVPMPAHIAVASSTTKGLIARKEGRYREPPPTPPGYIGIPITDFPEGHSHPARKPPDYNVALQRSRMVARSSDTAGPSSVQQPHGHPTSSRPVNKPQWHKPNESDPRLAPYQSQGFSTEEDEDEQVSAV
UniProt O43395: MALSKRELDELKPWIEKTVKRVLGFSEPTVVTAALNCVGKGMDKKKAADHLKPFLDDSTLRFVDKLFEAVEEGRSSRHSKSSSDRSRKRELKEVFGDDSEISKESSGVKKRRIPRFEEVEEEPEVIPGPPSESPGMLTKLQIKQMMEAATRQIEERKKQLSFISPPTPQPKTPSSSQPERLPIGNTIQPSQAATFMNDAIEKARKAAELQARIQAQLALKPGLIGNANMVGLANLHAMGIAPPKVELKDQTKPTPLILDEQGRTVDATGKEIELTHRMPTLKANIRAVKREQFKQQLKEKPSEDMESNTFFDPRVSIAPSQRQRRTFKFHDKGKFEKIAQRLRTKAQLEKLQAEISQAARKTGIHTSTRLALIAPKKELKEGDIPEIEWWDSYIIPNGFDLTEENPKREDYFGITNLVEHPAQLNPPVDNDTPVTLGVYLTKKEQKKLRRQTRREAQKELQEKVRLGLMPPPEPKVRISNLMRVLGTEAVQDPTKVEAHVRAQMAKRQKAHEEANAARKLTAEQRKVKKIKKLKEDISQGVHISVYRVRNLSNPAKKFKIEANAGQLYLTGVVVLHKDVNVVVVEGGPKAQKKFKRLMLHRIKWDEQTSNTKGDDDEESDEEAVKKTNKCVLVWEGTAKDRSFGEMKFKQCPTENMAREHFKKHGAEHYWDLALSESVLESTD
UniProt Q15185: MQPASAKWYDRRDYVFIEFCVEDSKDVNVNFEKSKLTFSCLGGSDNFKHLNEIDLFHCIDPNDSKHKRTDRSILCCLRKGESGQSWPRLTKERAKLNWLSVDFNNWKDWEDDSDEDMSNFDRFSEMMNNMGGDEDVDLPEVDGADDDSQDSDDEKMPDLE
UniProt O43242, whole entry: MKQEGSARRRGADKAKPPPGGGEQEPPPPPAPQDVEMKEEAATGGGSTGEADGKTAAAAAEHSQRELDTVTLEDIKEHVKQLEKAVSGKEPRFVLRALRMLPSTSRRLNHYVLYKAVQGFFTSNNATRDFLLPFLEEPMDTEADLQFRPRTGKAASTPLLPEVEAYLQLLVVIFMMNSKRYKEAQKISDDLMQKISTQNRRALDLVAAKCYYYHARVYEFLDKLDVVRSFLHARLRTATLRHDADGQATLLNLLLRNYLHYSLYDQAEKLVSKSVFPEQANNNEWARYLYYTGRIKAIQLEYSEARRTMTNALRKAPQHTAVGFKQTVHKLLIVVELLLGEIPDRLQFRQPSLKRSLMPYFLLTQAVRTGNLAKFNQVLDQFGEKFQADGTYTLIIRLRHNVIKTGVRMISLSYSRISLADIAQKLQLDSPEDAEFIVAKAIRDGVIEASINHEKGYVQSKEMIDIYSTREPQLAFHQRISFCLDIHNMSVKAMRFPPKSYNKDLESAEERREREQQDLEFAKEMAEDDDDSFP
UniProt P43487, whole entry: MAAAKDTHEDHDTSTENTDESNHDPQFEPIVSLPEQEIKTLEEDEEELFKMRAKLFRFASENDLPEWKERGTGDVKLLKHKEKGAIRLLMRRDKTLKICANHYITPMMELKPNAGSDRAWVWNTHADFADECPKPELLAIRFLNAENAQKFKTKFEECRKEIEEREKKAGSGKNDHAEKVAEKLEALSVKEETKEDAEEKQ
UniProt Q14671: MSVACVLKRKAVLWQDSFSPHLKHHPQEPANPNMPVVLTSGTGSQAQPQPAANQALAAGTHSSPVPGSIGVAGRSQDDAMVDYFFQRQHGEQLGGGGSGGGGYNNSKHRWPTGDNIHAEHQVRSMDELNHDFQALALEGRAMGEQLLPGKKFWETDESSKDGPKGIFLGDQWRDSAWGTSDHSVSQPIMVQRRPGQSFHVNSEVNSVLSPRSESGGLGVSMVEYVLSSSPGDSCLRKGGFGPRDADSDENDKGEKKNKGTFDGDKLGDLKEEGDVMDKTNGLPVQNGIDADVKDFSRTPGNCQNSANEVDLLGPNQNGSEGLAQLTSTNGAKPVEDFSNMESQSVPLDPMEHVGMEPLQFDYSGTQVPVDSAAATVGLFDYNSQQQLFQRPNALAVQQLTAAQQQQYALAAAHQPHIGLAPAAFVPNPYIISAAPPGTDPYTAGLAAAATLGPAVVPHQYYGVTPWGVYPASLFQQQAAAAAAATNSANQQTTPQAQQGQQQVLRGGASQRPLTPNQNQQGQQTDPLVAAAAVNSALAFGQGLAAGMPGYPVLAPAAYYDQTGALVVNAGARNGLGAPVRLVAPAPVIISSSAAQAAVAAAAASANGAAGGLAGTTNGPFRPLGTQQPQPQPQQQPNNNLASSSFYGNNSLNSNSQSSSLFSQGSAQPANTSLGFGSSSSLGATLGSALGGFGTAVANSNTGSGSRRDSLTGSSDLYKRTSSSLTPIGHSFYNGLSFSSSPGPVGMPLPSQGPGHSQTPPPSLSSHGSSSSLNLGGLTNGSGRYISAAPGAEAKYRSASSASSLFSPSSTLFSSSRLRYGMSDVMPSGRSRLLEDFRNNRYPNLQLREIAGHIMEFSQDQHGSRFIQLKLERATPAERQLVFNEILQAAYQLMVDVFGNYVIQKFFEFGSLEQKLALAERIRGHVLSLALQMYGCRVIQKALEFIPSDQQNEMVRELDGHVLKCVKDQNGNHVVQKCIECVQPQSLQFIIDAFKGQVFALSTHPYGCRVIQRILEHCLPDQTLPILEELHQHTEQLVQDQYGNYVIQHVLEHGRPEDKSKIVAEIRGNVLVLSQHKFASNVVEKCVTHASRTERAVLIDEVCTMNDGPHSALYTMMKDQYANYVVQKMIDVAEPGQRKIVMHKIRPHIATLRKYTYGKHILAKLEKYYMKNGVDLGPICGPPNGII
UniProt P47224: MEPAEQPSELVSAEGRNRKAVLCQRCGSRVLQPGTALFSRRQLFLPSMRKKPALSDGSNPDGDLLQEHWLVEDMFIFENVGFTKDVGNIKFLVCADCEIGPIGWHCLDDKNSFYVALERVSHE
UniProt Q99638: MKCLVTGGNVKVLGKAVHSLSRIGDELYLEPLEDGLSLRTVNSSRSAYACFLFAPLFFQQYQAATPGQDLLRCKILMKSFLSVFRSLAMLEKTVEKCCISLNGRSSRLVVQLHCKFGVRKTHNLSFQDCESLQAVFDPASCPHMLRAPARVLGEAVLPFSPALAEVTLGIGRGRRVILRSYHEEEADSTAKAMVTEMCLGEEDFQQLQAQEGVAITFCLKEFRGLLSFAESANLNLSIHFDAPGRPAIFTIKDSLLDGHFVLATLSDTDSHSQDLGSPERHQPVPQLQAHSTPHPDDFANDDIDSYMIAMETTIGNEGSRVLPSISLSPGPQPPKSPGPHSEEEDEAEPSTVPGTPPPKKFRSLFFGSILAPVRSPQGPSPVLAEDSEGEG

These targets were tested with Nc1nc2c(ncn2[C@@H]2O[C@H](COP(=O)(O)OP(=O)(O)OP(=O)(O)O)[C@@H](O)[C@H]2O)c(=O)[nH]1 (assay: dose-dependent thermal stabilisation call (2D-TPP, DLPTP, 10% FDR) (binary (1 = stabilised)); higher = stabilised by the compound). Settings: system: Jurkat gel-filtered lysate; concentration range 1-500 µM.

dose-dependent thermal stabilisation call, inactive:
PSMA8 (UniProt Q8TAA3) 0
PUS7L (UniProt Q9H0K6) 0
RANGAP1 (UniProt P46060) 0
RBM10 (UniProt P98175) 0
R3HDM1 (UniProt Q15032) 0
RABEP1 (UniProt Q15276) 0
RAPGEF6 (UniProt Q8TEU7) 0
PSMC3IP (UniProt Q9P2W1) 0
PSMD5 (UniProt Q16401) 0
PTMS (UniProt P20962) 0
RAPGEF2 (UniProt Q9Y4G8) 0
PRPF3 (UniProt O43395) 0
RANBP3 (UniProt Q9H6Z4) 0
PRRC2C (UniProt Q9Y520) 0
PTGES3 (UniProt Q15185) 0
PSMD3 (UniProt O43242) 0
RANBP1 (UniProt P43487) 0
RCSD1 (UniProt Q6JBY9) 0
PRKAB1 (UniProt Q9Y478) 0
PTK7 (UniProt Q13308) 0
PTK2B (UniProt Q14289) 0
RBPJ (UniProt Q06330) 0
PUM1 (UniProt Q14671) 0
PTP4A2 (UniProt Q12974) 0
RABIF (UniProt P47224) 0
RB1 (UniProt P06400) 0
PSMB2 (UniProt P49721) 0
PSIP1 (UniProt O75475) 0

Random excerpt: two entries already listed
dose-dependent thermal stabilisation call, inactive:
PSIP1 (UniProt O75475) 0
PTK2B (UniProt Q14289) 0

Next part.

dose-dependent thermal stabilisation call, active:
RACGAP1 (UniProt Q9H0H5) 1
PUS1 (UniProt Q9Y606) 1
RAB4A (UniProt P20338) 1
RAB11A (UniProt P62491) 1
RAD9A (UniProt Q99638) 1
PRPF38B (UniProt Q5VTL8) 1
RASSF5 (UniProt Q8WWW0) 1
PTGR1 (UniProt Q14914) 1
